Drawing on PMC5996148, this text covers binding signal for one sequence.

By UniProt entry, the sequences of proteins in these tests, tags left out. Where a name states a change or a piece, a line headed by the entry shows the natural chain unless it says otherwise.
UniProt P04053: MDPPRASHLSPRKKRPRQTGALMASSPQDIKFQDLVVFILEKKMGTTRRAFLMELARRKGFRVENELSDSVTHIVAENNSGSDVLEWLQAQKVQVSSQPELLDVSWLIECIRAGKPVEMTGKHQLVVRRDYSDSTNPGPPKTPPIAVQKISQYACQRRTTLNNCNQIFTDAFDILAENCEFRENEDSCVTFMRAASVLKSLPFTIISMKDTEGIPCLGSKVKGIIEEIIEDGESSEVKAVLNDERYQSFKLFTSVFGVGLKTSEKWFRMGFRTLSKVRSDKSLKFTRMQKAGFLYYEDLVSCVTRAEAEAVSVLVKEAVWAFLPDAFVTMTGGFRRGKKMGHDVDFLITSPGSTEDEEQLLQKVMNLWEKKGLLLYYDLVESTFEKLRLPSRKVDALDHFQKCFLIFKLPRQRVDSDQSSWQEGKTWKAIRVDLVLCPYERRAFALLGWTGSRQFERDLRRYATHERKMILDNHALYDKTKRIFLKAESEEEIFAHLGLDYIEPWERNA

This is one part of the list. For some assays here: The exact form of the protein is not confirmed.

Test systems include DMPK (human); DNAJB8 (human); DNAJC12 (human); DNAJC5G (human); DNAL1 (human); DPCR1 (human); DPP3 (human); DSCR4 (human); DTNB (human); DTNBP1 (human); DTYMK (human); DUSP22 (human); DUSP6 (human); DUT (human); DYDC1 (human); DYNC1LI2 (human).
What all share (assay): protein microarray (ProtoArray v5.0), streptavidin-Alexa Fluor 647
Common to all, as to conditions: 3'-biotin; 20 mM Tris (pH 7.5), 5 mM MgCl2, 100 mM KCl, 0.1% Tween-20, A/T-rich and random oligonucleotide blockers; temperature not stated; high values mean tight binding

Test [1] relates to DNA replication complex GINS protein PSF3 (human).
Test [2] relates to DNA-directed RNA polymerase II subunit RPB11-a (human).
The next test concerns the target T1, DNAL4 (UniProt O96015).
T1 sequence: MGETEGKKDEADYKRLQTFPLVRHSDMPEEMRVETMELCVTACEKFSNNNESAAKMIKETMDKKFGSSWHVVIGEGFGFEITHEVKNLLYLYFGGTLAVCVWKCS

A further test concerns the target DNTT (UniProt P04053).

On to “GGTGACAGGGGTATGGGGAGGGG [G4-2 biotinylated (Ct1)]”, for which the binding signal with DMPK (human) was -0.379 z-score; in test [1], -0.398 z-score; in test [2], -0.395 z-score; in the test with DNAJB8 (human), -0.365 z-score; with DNAJC12 (human) it was -0.378 z-score; in the test with DNAJC5G (human), -0.382 z-score. The binding signal was -0.366 z-score in the test with DNAL1 (human); -0.387 z-score in the test with DNAL4; 5.82 z-score with DNTT; -0.375 z-score with DPCR1 (human); -0.389 z-score in the test on DPP3 (human); -0.38 z-score in the test on DSCR4 (human). In addition, the binding signal is -0.384 z-score in the test on DTNB (human); -0.381 z-score in the test with DTNBP1 (human); -0.394 z-score in the test on DTYMK (human); -0.383 z-score with DUSP22 (human); -0.402 z-score in the test with DUSP6 (human); -0.372 z-score with DUT (human). The figures for the binding signal with DYDC1 (human) and with DYNC1LI2 (human) were -0.397 z-score and -0.396 z-score, respectively.
